In paper PMC8950399, “A New 3-Ketosteroid-Δ^1–Dehydrogenase with High Activity and Broad Substrate Scope for Efficient Transformation of Hydrocortisone at High Substrate Concentration” (Microorganisms, 2022):

Tested on: T1, PrKstD (3-ketosteroid-Δ^1-dehydrogenase)
T1 construct: His-tagged recombinant, GenBank NLT29951.1
Experiment: steady-state kinetics of purified enzyme (PMS/DCPIP assay, Km)
Type: biochemical, Propionibacterium sp.

Row | Compound | Km
1 | C[C@]12CCC(=O)C=C1CC[C@@H]1[C@@H]2CC[C@]2(C)C(=O)CC[C@@H]12 [compound 1, 4-androstene-3,17-dione] | 9.9 ± 1.8 µM
2 | C[C@]12CCC(=O)C=C1CC[C@H]1[C@@H]3CCC(=O)[C@@]3(C)CC[C@@]12O [compound 2, 9α-hydroxy-4-androsten-3,17-dione] | 21.5 ± 2.7 µM
3 | C[C@]12CCC(=O)C[C@@H]1CC[C@@H]1[C@@H]2CC[C@]2(C)[C@@H](O)CC[C@@H]12 [compound 5, 17β-Hydroxy-5α-androstan-3-one] | 36.6 ± 3.6 µM
4 | C[C@]12CC[C@H]3[C@@H](CCC4=CC(=O)CC[C@@H]43)[C@@H]1CCC2=O [compound 6, norandrostenedione] | 138 ± 9.3 µM
5 | CC(=O)[C@H]1CC[C@H]2[C@@H]3CCC4=CC(=O)CC[C@]4(C)[C@H]3CC[C@]12C [compound 10, progesterone] | 31.9 ± 5.8 µM
6 | C[C@]12CCC(=O)C=C1CC[C@@H]1[C@@H]2CC[C@@]2(C)[C@H]1CC[C@]2(O)C(=O)CO [compound 13, cortexolone] | 20.8 ± 4.2 µM
7 | C[C@]12CCC(=O)C=C1CC[C@@H]1[C@@H]2[C@@H](O)C[C@@]2(C)[C@H]1CC[C@]2(O)C(=O)CO [compound 15, hydrocortisone] | 164 ± 11.6 µM
8 | CC(=O)OCC(=O)[C@@]1(O)CC[C@H]2[C@@H]3CCC4=CC(=O)CC[C@]4(C)[C@H]3[C@@H](O)C[C@@]21C [compound 16, hydrocortisone acetate] | 212 ± 17.2 µM
9 | CC(=O)[C@@]1(O)CC[C@H]2[C@@H]3C[C@H](C)C4=CC(=O)CC[C@]4(C)[C@H]3[C@@H](O)C[C@@]21C [compound 17, 11β,17-dihydroxy-6α-methyl-pregn-4-ene-3,20-dione] | 343 ± 42.4 µM
10 | C[C@H]1C[C@@H]2[C@H]([C@@H](O)C[C@@]3(C)[C@H]2CC[C@]3(O)C(=O)CO)[C@@]2(C)CCC(=O)C=C12 [compound 18, 6α-methyl-hydrocortisone] | 443 ± 38.1 µM
